This note sets out measurements from paper PMC12612255.

Amino acid sequences for entries named in this document (tags omitted).
UniProt A5YKK6: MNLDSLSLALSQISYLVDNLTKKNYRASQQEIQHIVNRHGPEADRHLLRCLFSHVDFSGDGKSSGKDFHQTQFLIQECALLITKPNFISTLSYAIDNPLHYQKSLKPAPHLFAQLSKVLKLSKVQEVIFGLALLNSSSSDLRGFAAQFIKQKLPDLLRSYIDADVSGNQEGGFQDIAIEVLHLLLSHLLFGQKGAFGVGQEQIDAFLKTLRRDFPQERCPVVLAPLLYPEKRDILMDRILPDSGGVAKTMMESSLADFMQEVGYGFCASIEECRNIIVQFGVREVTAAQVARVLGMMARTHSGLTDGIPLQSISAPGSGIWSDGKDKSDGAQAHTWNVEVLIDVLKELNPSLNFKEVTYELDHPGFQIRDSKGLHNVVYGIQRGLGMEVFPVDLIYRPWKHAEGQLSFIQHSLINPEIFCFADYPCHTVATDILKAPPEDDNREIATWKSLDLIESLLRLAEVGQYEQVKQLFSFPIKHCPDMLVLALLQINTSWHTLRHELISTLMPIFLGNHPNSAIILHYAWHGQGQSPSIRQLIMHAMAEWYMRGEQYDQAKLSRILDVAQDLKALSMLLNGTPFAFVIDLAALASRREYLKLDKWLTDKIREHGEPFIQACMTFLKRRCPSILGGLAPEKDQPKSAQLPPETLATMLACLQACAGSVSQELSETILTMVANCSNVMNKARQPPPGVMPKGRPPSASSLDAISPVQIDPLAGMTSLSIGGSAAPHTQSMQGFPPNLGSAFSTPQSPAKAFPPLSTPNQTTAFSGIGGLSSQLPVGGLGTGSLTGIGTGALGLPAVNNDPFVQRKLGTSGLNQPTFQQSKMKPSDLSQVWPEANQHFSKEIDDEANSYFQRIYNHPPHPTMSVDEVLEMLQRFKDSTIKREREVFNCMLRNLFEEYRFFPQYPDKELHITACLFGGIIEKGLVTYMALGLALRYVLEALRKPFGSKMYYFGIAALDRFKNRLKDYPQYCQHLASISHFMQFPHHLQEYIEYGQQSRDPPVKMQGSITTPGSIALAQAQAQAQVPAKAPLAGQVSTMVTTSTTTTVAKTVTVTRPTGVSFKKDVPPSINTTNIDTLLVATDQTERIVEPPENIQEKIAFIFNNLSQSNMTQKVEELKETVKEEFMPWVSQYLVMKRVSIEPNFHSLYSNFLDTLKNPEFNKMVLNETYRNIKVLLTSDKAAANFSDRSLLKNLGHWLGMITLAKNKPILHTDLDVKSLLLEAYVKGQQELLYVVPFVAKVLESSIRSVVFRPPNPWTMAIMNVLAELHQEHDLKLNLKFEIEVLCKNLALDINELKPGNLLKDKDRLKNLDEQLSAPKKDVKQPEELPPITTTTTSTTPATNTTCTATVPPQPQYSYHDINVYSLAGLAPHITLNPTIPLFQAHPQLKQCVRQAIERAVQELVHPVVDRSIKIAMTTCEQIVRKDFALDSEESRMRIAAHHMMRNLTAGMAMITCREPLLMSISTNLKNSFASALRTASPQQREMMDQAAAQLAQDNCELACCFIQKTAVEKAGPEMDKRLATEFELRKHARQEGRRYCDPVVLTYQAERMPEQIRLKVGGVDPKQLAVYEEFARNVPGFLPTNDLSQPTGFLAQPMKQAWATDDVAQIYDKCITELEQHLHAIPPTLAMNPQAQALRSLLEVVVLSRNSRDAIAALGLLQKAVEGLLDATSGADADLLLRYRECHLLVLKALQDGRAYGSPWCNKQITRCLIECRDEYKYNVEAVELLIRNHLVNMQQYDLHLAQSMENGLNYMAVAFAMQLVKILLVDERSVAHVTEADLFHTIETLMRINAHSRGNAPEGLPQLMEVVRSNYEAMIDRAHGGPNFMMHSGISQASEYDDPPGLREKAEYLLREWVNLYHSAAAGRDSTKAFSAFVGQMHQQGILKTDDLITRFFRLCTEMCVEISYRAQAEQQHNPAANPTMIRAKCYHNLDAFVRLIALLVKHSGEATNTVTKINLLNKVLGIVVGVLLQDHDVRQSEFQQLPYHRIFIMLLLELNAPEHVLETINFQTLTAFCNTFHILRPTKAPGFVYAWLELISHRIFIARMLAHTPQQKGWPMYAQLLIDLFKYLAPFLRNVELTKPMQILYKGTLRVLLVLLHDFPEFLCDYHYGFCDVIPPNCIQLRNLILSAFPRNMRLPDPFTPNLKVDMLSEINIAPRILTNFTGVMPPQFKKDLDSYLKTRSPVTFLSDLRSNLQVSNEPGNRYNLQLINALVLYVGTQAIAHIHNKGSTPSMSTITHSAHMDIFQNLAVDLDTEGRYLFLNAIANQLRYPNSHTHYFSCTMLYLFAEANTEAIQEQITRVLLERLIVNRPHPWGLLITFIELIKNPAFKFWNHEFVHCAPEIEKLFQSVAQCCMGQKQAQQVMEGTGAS

B1: U4/U6.U5 tri-snRNP-associated protein 2 (SNUT2) (protein, UniProt Q53GS9 1-565)
chain: MSGRSKRESRGSTRGKRESESRGSSGRVKRERDREREPEAASSRGSPVRVKREFEPASAREAPASVVPFVRVKREREVDEDSEPEREVRAKNGRVDSEDRRSRHCPYLDTINRSVLDFDFEKLCSISLSHINAYACLVCGKYFQGRGLKSHAYIHSVQFSHHVFLNLHTLKFYCLPDNYEIIDSSLEDITYVLKPTFTKQQIANLDKQAKLSRAYDGTTYLPGIVGLNNIKANDYANAVLQALSNVPPLRNYFLEEDNYKNIKRPPGDIMFLLVQRFGELMRKLWNPRNFKAHVSPHEMLQAVVLCSKKTFQITKQGDGVDFLSWFLNALHSALGGTKKKKKTIVTDVFQGSMRIFTKKLPHPDLPAEEKEQLLHNDEYQETMVESTFMYLTLDLPTAPLYKDEKEQLIIPQVPLFNILAKFNGITEKEYKTYKENFLKRFQLTKLPPYLIFCIKRFTKNNFFVEKNPTIVNFPITNVDLREYLSEEVQAVHKNTTYDLIANIVHDGKPSEGSYRIHVLHHGTGKWYELQDLQVTDILPQMITLSEAYIQIWKRRDNDETNQQGA
B2: U4/U6 small nuclear ribonucleoprotein Prp4 (PRPF4) (protein, UniProt O43172 1-522)
chain: MASSRASSTQATKTKAPDDLVAPVVKKPHIYYGSLEEKERERLAKGESGILGKDGLKAGIEAGNINITSGEVFEIEEHISERQAEVLAEFERRKRARQINVSTDDSEVKACLRALGEPITLFGEGPAERRERLRNILSVVGTDALKKTKKDDEKSKKSKEEYQQTWYHEGPNSLKVARLWIANYSLPRAMKRLEEARLHKEIPETTRTSQMQELHKSLRSLNNFCSQIGDDRPISYCHFSPNSKMLATACWSGLCKLWSVPDCNLLHTLRGHNTNVGAIVFHPKSTVSLDPKDVNLASCAADGSVKLWSLDSDEPVADIEGHTVRVARVMWHPSGRFLGTTCYDRSWRLWDLEAQEEILHQEGHSMGVYDIAFHQDGSLAGTGGLDAFGRVWDLRTGRCIMFLEGHLKEIYGINFSPNGYHIATGSGDNTCKVWDLRQRRCVYTIPAHQNLVTGVKFEPIHGNFLLTGAYDNTAKIWTHPGWSPLKTLAGHEGKVMGLDISSDGQLIATCSYDRTFKLWMAE
B3: U6 snRNA-associated Sm-like protein LSM4 (protein, UniProt Q9Y4Z0 1-139)
chain: MLPLSLLKTAQNHPMLVELKNGETYNGHLVSCDNWMNINLREVICTSRDGDKFWRMPECYIRGSTIKYLRIPDEIIDMVKEEVVAKGRGRGGLQQQKQQKGRGMGGAGRGVFGGRGRGGIPGTGRGQPEKKPGRQAGKQ
B4: U4/U6.U5 tri-snRNP-associated protein 1 (SNUT1) (protein, UniProt O43290 1-800)
chain: MGSSKKHRGEKEAAGTTAAAGTGGATEQPPRHREHKKHKHRSGGSGGSGGERRKRSRERGGERGSGRRGAEAEARSSTHGRERSQAEPSERRVKREKRDDGYEAAASSKTSSGDASSLSIEETNKLRAKLGLKPLEVNAIKKEAGTKEEPVTADVINPMALRQREELREKLAAAKEKRLLNQKLGKIKTLGEDDPWLDDTAAWIERSRQLQKEKDLAEKRAKLLEEMDQEFGVSTLVEEEFGQRRQDLYSARDLQGLTVEHAIDSFREGETMILTLKDKGVLQEEEDVLVNVNLVDKERAEKNVELRKKKPDYLPYAEDESVDDLAQQKPRSILSKYDEELEGERPHSFRLEQGGTADGLRERELEEIRAKLRLQAQSLSTVGPRLASEYLTPEEMVTFKKTKRRVKKIRKKEKEVVVRADDLLPLGDQTQDGDFGSRLRGRGRRRVSEVEEEKEPVPQPLPSDDTRVENMDISDEEEGGAPPPGSPQVLEEDEAELELQKQLEKGRRLRQLQQLQQLRDSGEKVVEIVKKLESRQRGWEEDEDPERKGAIVFNATSEFCRTLGEIPTYGLAGNREEQEELMDFERDEERSANGGSESDGEENIGWSTVNLDEEKQQQDFSASSTTILDEEPIVNRGLAAALLLCQNKGLLETTVQKVARVKAPNKSLPSAVYCIEDKMAIDDKYSRREEYRGFTQDFKEKDGYKPDVKIEYVDETGRKLTPKEAFRQLSHRFHGKGSGKMKTERRMKKLDEEALLKKMSSSDTPLGTVALLQEKQKAQKTPYIVLSGSGKSMNANTITK
B5: U4/U6 small nuclear ribonucleoprotein Prp3 (PRPF3) (protein, UniProt O43395 1-683)
chain: MALSKRELDELKPWIEKTVKRVLGFSEPTVVTAALNCVGKGMDKKKAADHLKPFLDDSTLRFVDKLFEAVEEGRSSRHSKSSSDRSRKRELKEVFGDDSEISKESSGVKKRRIPRFEEVEEEPEVIPGPPSESPGMLTKLQIKQMMEAATRQIEERKKQLSFISPPTPQPKTPSSSQPERLPIGNTIQPSQAATFMNDAIEKARKAAELQARIQAQLALKPGLIGNANMVGLANLHAMGIAPPKVELKDQTKPTPLILDEQGRTVDATGKEIELTHRMPTLKANIRAVKREQFKQQLKEKPSEDMESNTFFDPRVSIAPSQRQRRTFKFHDKGKFEKIAQRLRTKAQLEKLQAEISQAARKTGIHTSTRLALIAPKKELKEGDIPEIEWWDSYIIPNGFDLTEENPKREDYFGITNLVEHPAQLNPPVDNDTPVTLGVYLTKKEQKKLRRQTRREAQKELQEKVRLGLMPPPEPKVRISNLMRVLGTEAVQDPTKVEAHVRAQMAKRQKAHEEANAARKLTAEQRKVKKIKKLKEDISQGVHISVYRVRNLSNPAKKFKIEANAGQLYLTGVVVLHKDVNVVVVEGGPKAQKKFKRLMLHRIKWDEQTSNTKGDDDEESDEEAVKKTNKCVLVWEGTAKDRSFGEMKFKQCPTENMAREHFKKHGAEHYWDLALSESVLESTD

Results are given in words; binding and its absence hold for the method and conditions named. Binding seen in cells or lysates may run through a third protein. A yes stands for co-enrichment or nearness to the bait. Other partners may have been found.

The first experiment has as its target YTHDF2 (human (endogenous in HaCaT)) (UniProt Q9Y5A9). In words: affinity purification with mass spectrometry; YTHDF2 immunoprecipitates from HaCaT cells, 1 h post-sham or -UVB, against an IgG control; SDS-PAGE, in-gel trypsin digestion, nanoLC-MS/MS.
Turning to CNOT1 (from UniProt A5YKK6 1-2376), the binding entry is “binds”.

With “p62 (also known as SQSTM1) (from UniProt Q13501 1-440)”, the binding entry was “binds”.

The next experiment shares this target. Described as above. This is another data set of the same source.
For the molecule B1, the binding result was “binds”.

For the molecule B2, the binding result was “binds”.

Take B3: the binding result is reported as “binds”.

On to B4, for which the binding entry was “binds”.

Regarding B5, the binding entry is recorded as “binds”.
